The target of the test is T1, Met-Fc fusion protein (R&D Systems) labeled with Alexa 488, P08581.
T1 chain: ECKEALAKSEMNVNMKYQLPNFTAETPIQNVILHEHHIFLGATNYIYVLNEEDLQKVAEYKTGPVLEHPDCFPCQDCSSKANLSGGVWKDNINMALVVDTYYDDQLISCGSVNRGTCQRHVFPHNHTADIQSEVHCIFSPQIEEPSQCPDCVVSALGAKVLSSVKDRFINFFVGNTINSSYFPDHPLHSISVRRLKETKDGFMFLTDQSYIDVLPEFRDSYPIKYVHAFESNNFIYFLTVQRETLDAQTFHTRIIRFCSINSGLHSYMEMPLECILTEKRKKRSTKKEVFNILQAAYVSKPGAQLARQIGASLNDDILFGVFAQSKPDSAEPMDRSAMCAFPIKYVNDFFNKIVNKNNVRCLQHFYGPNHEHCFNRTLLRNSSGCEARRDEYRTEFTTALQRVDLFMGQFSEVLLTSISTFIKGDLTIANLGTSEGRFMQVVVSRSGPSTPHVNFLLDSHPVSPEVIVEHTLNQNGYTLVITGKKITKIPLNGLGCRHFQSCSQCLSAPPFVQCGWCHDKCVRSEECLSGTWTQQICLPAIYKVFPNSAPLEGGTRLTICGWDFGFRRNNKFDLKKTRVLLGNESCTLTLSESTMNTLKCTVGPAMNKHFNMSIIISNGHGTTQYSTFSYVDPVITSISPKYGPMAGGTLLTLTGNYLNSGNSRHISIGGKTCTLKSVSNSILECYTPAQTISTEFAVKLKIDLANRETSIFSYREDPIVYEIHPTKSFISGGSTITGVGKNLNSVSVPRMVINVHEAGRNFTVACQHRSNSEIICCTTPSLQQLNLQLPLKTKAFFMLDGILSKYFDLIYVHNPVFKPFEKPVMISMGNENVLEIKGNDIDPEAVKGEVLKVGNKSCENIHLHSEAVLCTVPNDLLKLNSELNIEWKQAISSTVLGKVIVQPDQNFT
Put plainly: flow cytometry, yeast display, 20 or 200 nM Met-Fc labeled with Alexa 488, with and without 2 µM heparin. As to conditions: remark: other sources report otherwise.

These are yes or no findings as the source states them, for the method shown. Some results given as binding are weak or reduced against the parent protein; the word gives no strength. Where a sequence is shown, tags or fusion partners need not be part of it.

B1: wild-type NK1 Isoform 1 displayed on yeast, P14210 28-210 (ligand)
chain: YAEGQRKRRNTIHEFKKSAKTTLIKIDPALKIKTKKVNTADQCANRCTRNKGLPFTCKAFVFDKARKQCLWFPFNSMSSGVKKEFGHEFDLYENKDYIRNCIIGKGRSYKGTVSITKSGIKCQPWSSMIPHEHSFLPSSYRGKDLQENYCRNPRGEEGGPWCFTSNPEVRYEVCDIPQCSEVE
modifications: here or on the partner: Alexa 488 label
B1: the binding result is “binds”.

The values above are taken from patent US20220023385A1.
